Measurements from publication PMC5853832.
These are yes or no findings as the source states them, for the method shown. In cells and extracts the contact can be indirect. Some binding calls cover weakened binding; strength is not graded here. Where a sequence is shown, tags or fusion partners need not be part of it.

Chains of the proteins cited; added tags and fusions are not shown.
UniProt P45983: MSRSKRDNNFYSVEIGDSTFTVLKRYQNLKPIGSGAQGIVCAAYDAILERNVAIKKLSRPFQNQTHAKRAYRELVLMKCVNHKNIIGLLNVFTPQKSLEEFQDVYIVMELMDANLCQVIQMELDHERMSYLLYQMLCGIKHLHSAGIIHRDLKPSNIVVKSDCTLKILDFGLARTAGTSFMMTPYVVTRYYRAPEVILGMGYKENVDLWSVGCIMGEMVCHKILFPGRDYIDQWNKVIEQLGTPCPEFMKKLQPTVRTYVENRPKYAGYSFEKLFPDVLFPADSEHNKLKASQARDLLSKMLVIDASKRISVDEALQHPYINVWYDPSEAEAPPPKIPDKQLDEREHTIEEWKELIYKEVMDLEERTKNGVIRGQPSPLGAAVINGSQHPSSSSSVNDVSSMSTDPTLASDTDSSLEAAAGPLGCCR

Assays:
[1] = biological target: HA-tagged c-Jun N-terminal Kinase 1 (JNK1) (UniProt P45983); experiment: condition: only cells treated with 0.5 M sorbitol for 30 min (JNK activated); co-IP; as a1, but cells treated with 0.5 M sorbitol for 30 min (osmotic shock, JNK activated) before lysis; anti-HA immunoprecipitate blotted with anti-Flag
[2] = biological target: HA-tagged c-Jun N-terminal Kinase 1 (JNK1) (UniProt P45983); experiment: co-IP; HEK-293 cells co-transfected with HA-JNK and Flag-MS1, left untreated; lysate immunoprecipitated with anti-HA and Protein-A Sepharose, 3 h at 4°C, washed three times with lysis buffer (137 mM NaCl, 1% Triton X-100, pH 7.4); blotted with anti-Flag

B1: Flag-tagged Myocyte Stress Protein 1 (MS1) (protein, UniProt Q8K4K7 1-375)
chain: MAPGETEREAGPAKSALQKVRRATLVINLARGWQQWANENSTRQAQEPAGWLPGATQDLPHTPKEPGPRQHAPKPPSPKPDGDREGRGSEEATEVSHIKRKEVTRTVVSKAYERGGDVNYLSHRYEHDGGVSEAVQPDNDIDRILLSHDSPTRRRKCTNLVSELTKGWKVMEQEEPKWKSDSIDTEDSGYGGDMEERPEQDVAQVAAARIKRPLHSQANRYSETLNCKAHRKYSQVDNLKGRWQQWADEHIQSQKLNPFSDEFDYDLAMSTRLHKGDEGYGRPKEGSKTAERAKRAEEHIYREIMELCFVIRTMARHRRDGKIQVTFGELFDRYVRISDKVVGILMRARKHGLVHFEGEMLWQGKDDHVVITLLE
binding [1]: no binding
binding [2]: binds
